Consider 40 sequences from paper PMC7862700.

Protein sequences, listed by entry. Tags and fused reporters are not part of them. Lines headed by an entry give the natural chain unless they say otherwise; changes in a name come on top.
UniProt P32519: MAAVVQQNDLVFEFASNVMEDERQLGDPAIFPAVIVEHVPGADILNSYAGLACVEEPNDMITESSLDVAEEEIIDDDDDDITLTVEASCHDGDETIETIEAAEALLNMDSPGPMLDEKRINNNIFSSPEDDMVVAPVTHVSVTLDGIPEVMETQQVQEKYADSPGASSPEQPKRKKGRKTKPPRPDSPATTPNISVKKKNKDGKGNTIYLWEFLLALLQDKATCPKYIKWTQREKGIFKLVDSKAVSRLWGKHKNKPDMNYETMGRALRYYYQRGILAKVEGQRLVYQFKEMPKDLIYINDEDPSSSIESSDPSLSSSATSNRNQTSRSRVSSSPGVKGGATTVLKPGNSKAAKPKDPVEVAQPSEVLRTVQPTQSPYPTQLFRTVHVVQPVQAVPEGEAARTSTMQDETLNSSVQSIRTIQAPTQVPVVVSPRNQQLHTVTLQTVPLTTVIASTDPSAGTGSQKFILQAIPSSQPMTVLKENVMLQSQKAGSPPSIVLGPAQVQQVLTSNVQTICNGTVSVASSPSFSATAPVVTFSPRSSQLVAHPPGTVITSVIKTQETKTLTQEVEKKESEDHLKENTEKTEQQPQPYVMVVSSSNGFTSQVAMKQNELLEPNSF

The list shows a part of the results, in another mix than the full data. For some assays here: At the low end of the ranking, values are background and their order means little. This is one part of the list. For some assays here: The exact form of the protein is not confirmed.

The target in one assay is ELF1 (UniProt P32519). As to the kind of experiment: DAPPL (digital affinity profiling via proximity ligation, sequencing). Particulars: 10 mM Tris-HCl pH 7.5, 50 mM NaCl, 1 mM DTT, 4% glycerol, room temperature, 30 min; GST-TFs on glutathione beads, 16-mer random dsDNA library, 0.1% …; high values mean tight binding; double strand, one strand shown; scale: fold enrichment (6-mer frequency, TF over GST control).
GTACAA displayed a binding signal of 1.11.

AAACAA yielded a binding signal of 1.28.

With CGGGCT, the binding signal was found to be 1.04.

On to TTCGGC, for which the binding signal was 1.

With ACAGCT, the binding signal came to 1.16.

As to TGGTGG, the binding signal is 1.03.

The sequence CCGCTT showed a binding signal of 1.92.

Sequence GTTACT returned a binding signal of 1.22.

In turn, ACCTTT yielded a binding signal of 1.47.

For CTCACC, the binding signal was 1.2.

In the case of TATGCT, the binding signal turned out to be 1.29.

Take CCTGGC: the binding signal worked out at 1.07.

Sequence ACAACC showed a binding signal of 1.16.

For CAACCC, the binding signal is 1.24.

GTATAA displayed a binding signal of 1.06.

GTACCC had a binding signal of 1.12.

In turn, GATTCA came in with a binding signal of 1.17.

CTAACA came in with a binding signal of 1.25.

Consider GCTCGA, for which the binding signal was determined as 1.21.

CATGCA yielded a binding signal of 1.1.

In turn, TCAAAT registered a binding signal of 1.15.

Consider TCAAAA, for which the binding signal came out at 1.19.

For the sequence GTGCAT, the binding signal is 1.01.

CAAATG: the binding signal came out at 1.22.

Turning to TGTCTA, the binding signal was 1.15.

CCAATA showed a binding signal of 1.25.

As for GAAACG, the binding signal is 1.18.

In the case of ACGATT, the binding signal worked out at 1.32.

ACTGCC had a binding signal of 1.42.

For the sequence TTCTTG, the binding signal is 1.46.

Consider ATCAAA, for which the binding signal came to 1.07.

In turn, ATTCAT displayed a binding signal of 1.16.

GCCACT displayed a binding signal of 1.23.

The sequence CAGCCC came in with a binding signal of 1.09.

ACTTCT: the binding signal came to 1.52.

In turn, TGACCA gave a binding signal of 1.29.

For the sequence TAGGGC, the binding signal was 1.

For CCGGTT, the binding signal is 1.96.

Sequence TATGCC showed a binding signal of 1.2.

For the sequence CCGGAT, the binding signal is 2.97.

Another assay concerns the target T1, ETV4 (UniProt P43268).
T1 sequence: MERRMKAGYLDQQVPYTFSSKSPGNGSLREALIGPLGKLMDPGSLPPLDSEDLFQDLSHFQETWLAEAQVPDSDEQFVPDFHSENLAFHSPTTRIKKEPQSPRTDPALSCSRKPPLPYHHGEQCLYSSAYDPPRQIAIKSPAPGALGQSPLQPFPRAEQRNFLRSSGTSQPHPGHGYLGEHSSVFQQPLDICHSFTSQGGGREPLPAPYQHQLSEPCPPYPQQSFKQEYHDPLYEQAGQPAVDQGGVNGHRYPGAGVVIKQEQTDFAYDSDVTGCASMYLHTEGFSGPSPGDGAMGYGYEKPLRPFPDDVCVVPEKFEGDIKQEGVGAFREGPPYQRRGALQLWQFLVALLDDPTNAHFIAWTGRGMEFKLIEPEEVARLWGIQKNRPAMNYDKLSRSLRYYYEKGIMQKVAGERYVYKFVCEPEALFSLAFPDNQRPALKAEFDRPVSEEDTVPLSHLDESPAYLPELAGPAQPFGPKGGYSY
Described as above. Particulars: 10 mM Tris-HCl pH 7.5, 50 mM NaCl, 1 mM DTT, 4% glycerol, room temperature, 30 min; GST-TFs on glutathione beads, 16-mer random dsDNA library, 0.1% …; high values mean tight binding; double strand, one strand shown; scale: fold enrichment (6-mer frequency, TF over GST control).
Sequence GTACAA yielded a binding signal of 1.06.

AAACAA gave a binding signal of 1.21.

As for CGGGCT, the binding signal was 1.12.

As to TTCGGC, the binding signal worked out at 0.997.

ACAGCT: the binding signal was determined as 1.18.

In turn, TGGTGG displayed a binding signal of 1.07.

Take CCGCTT: the binding signal stood at 1.94.

In turn, GTTACT had a binding signal of 1.28.

ACCTTT: the binding signal was 1.48.

Consider CTCACC, for which the binding signal was determined as 1.3.

TATGCT registered a binding signal of 1.46.

With CCTGGC, the binding signal is 1.04.

Sequence ACAACC registered a binding signal of 1.24.

For the sequence CAACCC, the binding signal is 1.17.

Take GTATAA: the binding signal came out at 1.06.

Consider GTACCC, for which the binding signal came to 1.11.

The sequence GATTCA showed a binding signal of 1.19.

Sequence CTAACA yielded a binding signal of 1.19.

For GCTCGA, the binding signal worked out at 1.23.

For the sequence CATGCA, the binding signal was 1.06.

On to TCAAAT, for which the binding signal was determined as 1.09.

Sequence TCAAAA gave a binding signal of 1.09.

As for GTGCAT, the binding signal was 1.1.

Regarding CAAATG, the binding signal worked out at 1.14.

With TGTCTA, the binding signal worked out at 1.09.

CCAATA returned a binding signal of 1.25.

Sequence GAAACG returned a binding signal of 1.22.

In the case of ACGATT, the binding signal was 1.28.

ACTGCC: the binding signal was 1.32.

In turn, TTCTTG gave a binding signal of 1.48.

As to ATCAAA, the binding signal was determined as 1.04.

Sequence ATTCAT had a binding signal of 1.12.

In turn, GCCACT gave a binding signal of 1.24.

Sequence CAGCCC returned a binding signal of 1.14.

In turn, ACTTCT showed a binding signal of 1.49.

On to TGACCA, for which the binding signal stood at 1.28.

TAGGGC registered a binding signal of 0.988.

Take CCGGTT: the binding signal was 2.24.

TATGCC gave a binding signal of 1.2.

Sequence CCGGAT gave a binding signal of 3.45.
